Taken from: PubChem BioAssay AID1159578 (Peter MacCallum Cancer Centre, 2015)
Shown is a random part of about 18,000 reagents tested. About 1,030 of them (5.7%) were called active. 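Inactive calls also include pools with fewer than 3300 nuclei, whose migration was not assessed.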 The raw values are shown without normalisation. Entries without a mark were called inactive.

Test: 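Genome-wide hunt for genes controlling movement of lymphatic endothelial cells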 (primary screen)
Cells: human lymphatic endothelial cells
Reagent: siRNA pool against human genes, 40 nM
Time to read-out: 48 h after transfection
Read-out: 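High-content imaging of dye-stained cells in a scratch assay measures filled wound area and nuclei per well; duplicate means given as ratio to mock and robust z-score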
Scale: migration robust z-score: higher = faster migration into the scratch; migration relative to mock: higher = more scratch area covered than mock; nuclei per well: higher = more cells in the well
Call rule: 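Migration changed when robust z exceeds 2 or falls below -2 and mean nuclei number is at least 3300; otherwise not called changed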
Meaning of the calls: active = migration changed; inactive = no migration change, or too few cells

gene symbol	migration robust z-score	migration class with cell-count check	migration relative to mock	nuclei per well, duplicate mean
NDE1 (nudE neurodevelopment protein 1)	-1.22	migration z between -2 and 2; enough cells	0.57	4862
ACTN1 (actinin alpha 1)	-0.16	migration z between -2 and 2; enough cells	0.78	6380
NRN1L (neuritin 1 like)	0.46	migration z between -2 and 2; enough cells	1	4774
APOA2 (apolipoprotein A2)	-2.62 (active)	migration z below -2; enough cells	0.3	3960
ALAS1 (5'-aminolevulinate synthase 1)	0.98	migration z between -2 and 2; enough cells	1	6003
NDUFS7 (NADH:ubiquinone oxidoreductase core subunit S7)	0.39	migration z between -2 and 2; enough cells	0.88	7186
ARL17B (ARF like GTPase 17B)	0.4	migration z between -2 and 2; enough cells	0.99	5552
STAMBP (STAM binding protein)	-0.31	migration z between -2 and 2; enough cells	0.74	5991
LTA4H (leukotriene A4 hydrolase)	0.26	migration z between -2 and 2; enough cells	0.86	6318
APP (amyloid beta precursor protein)	1.53	migration z between -2 and 2; enough cells	1.1	6704
CD55 (CD55 molecule (Cromer blood group))	-0.63	migration z between -2 and 2; enough cells	0.72	6368
HOMER3 (homer scaffold protein 3)	-0.76	migration z between -2 and 2; enough cells	0.69	5574
BCL2A1 (BCL2 related protein A1)	2.25 (active)	migration z above 2; enough cells	1.24	6550
HSD17B10 (hydroxysteroid 17-beta dehydrogenase 10)	-1.03	migration z between -2 and 2; enough cells	0.6	5910
GNPTG (N-acetylglucosamine-1-phosphate transferase subunit gamma)	-0.75	migration z between -2 and 2; enough cells	0.69	5952
VWA1 (von Willebrand factor A domain containing 1)	0.18	migration z between -2 and 2; enough cells	0.93	6230
TMEM86B (transmembrane protein 86B)	-1.24	migration z between -2 and 2; enough cells	0.56	3898
LRP12 (LDL receptor related protein 12)	-0.21	migration z between -2 and 2; enough cells	0.76	5202
ADH4 (alcohol dehydrogenase 4 (class II), pi polypeptide)	-0.28	migration z between -2 and 2; enough cells	0.75	4273
NETO2 (neuropilin and tolloid like 2)	0.4	migration z between -2 and 2; enough cells	0.99	6292
PSMD6 (proteasome 26S subunit, non-ATPase 6)	-1.57	migration z between -2 and 2; enough cells	0.48	4805
TCTN3 (tectonic family member 3)	-0.05	migration z between -2 and 2; enough cells	0.87	4791
OR2T29 (olfactory receptor family 2 subfamily T member 29)	-1.08	migration z between -2 and 2; enough cells	0.6	5130
H4C13 (H4 clustered histone 13)	0.3	migration z between -2 and 2; enough cells	0.96	6330
CPT1A (carnitine palmitoyltransferase 1A)	0.05	migration z between -2 and 2; enough cells	0.82	4838
SEC22A (SEC22 homolog A, vesicle trafficking protein)	0.55	migration z between -2 and 2; enough cells	1.03	6912
NPIPB7 (nuclear pore complex interacting protein family member B7)	-0.4	migration z between -2 and 2; enough cells	0.78	5492
IDH3B	-0.42	migration z between -2 and 2; enough cells	0.72	4738
KRTAP4-4 (keratin associated protein 4-4)	-0.78	migration z between -2 and 2; enough cells	0.68	4998
KRTAP12-3 (keratin associated protein 12-3)	1.46	migration z between -2 and 2; enough cells	1.26	6200
RPL23 (ribosomal protein L23)	-0.3	migration z between -2 and 2; enough cells	0.8	4465
OR10A5 (olfactory receptor family 10 subfamily A member 5)	0.25	migration z between -2 and 2; enough cells	0.94	5239
OR2A2 (olfactory receptor family 2 subfamily A member 2)	-0.92	migration z between -2 and 2; enough cells	0.65	5926
REEP6 (receptor accessory protein 6)	0.51	migration z between -2 and 2; enough cells	1.02	6507
OR6C6 (olfactory receptor family 6 subfamily C member 6)	0.22	migration z between -2 and 2; enough cells	0.94	4584
INPP5D (inositol polyphosphate-5-phosphatase D)	-1.66	migration z between -2 and 2; enough cells	0.48	4778
RAB44 (RAB44, member RAS oncogene family)	-0.4	migration z between -2 and 2; enough cells	0.78	5852
ZYG11B (zyg-11 family member B, cell cycle regulator)	0.25	migration z between -2 and 2; enough cells	0.95	7794
RPL30 (ribosomal protein L30)	-0.66	migration z between -2 and 2; enough cells	0.72	4004
CDHR2 (cadherin related family member 2)	-0.66	migration z between -2 and 2; enough cells	0.72	5850
FCMR (Fc mu receptor)	-0.38	migration z between -2 and 2; enough cells	0.78	4963
EIF4G3 (eukaryotic translation initiation factor 4 gamma 3)	0.13	migration z between -2 and 2; enough cells	0.92	5750
OR9G9 (olfactory receptor family 9 subfamily G member 9)	-1.46	migration z between -2 and 2; enough cells	0.5	5992
CCDC82 (coiled-coil domain containing 82)	-0.8	migration z between -2 and 2; enough cells	0.68	5574
C16orf90 (chromosome 16 open reading frame 90)	1.64	migration z between -2 and 2; enough cells	1.31	7092
CNTN5 (contactin 5)	1.03	migration z between -2 and 2; enough cells	1.15	5788
C1orf94 (chromosome 1 open reading frame 94)	-1.7	migration z between -2 and 2; enough cells	0.44	5116
THY1 (Thy-1 cell surface antigen)	0.16	migration z between -2 and 2; enough cells	0.92	5962
CBFA2T2 (CBFA2/RUNX1 partner transcriptional co-repressor 2)	0.32	migration z between -2 and 2; enough cells	0.86	6616
TMEM45B (transmembrane protein 45B)	0.55	migration z between -2 and 2; enough cells	1.02	7996
FCGR1A (Fc gamma receptor Ia)	-0.36	migration z between -2 and 2; enough cells	0.74	6180
PIM2 (Pim-2 proto-oncogene, serine/threonine kinase)	-3.6	under 3300 nuclei; migration not judged	0.11	2301
CHML (CHM like Rab escort protein)	-0.36	migration z between -2 and 2; enough cells	0.74	5290
DHRS7 (dehydrogenase/reductase 7)	-0.76	migration z between -2 and 2; enough cells	0.66	5637
ABCD1 (ATP binding cassette subfamily D member 1)	0.13	migration z between -2 and 2; enough cells	0.83	5803
PLA2G7 (phospholipase A2 group VII)	0.86	migration z between -2 and 2; enough cells	0.97	5519
TAC4 (tachykinin precursor 4)	1.04	migration z between -2 and 2; enough cells	1.15	6522

Ordered by “nuclei per well, duplicate mean” (lowest first): 4 of the entries above
gene symbol	migration robust z-score	migration class with cell-count check	migration relative to mock	nuclei per well, duplicate mean
C1orf94 (chromosome 1 open reading frame 94)	-1.7	migration z between -2 and 2; enough cells	0.44	5116
THY1 (Thy-1 cell surface antigen)	0.16	migration z between -2 and 2; enough cells	0.92	5962
CBFA2T2 (CBFA2/RUNX1 partner transcriptional co-repressor 2)	0.32	migration z between -2 and 2; enough cells	0.86	6616
TMEM45B (transmembrane protein 45B)	0.55	migration z between -2 and 2; enough cells	1.02	7996
